These are yes or no findings as the source states them, for the method shown. Binding seen in cells or lysates may run through a third protein. Binding can be weak; no strength is given. For some assays here: Tags and fused reporters may be left off the sequences shown.
T1: myc-tagged TRAF2 (UniProt Q12933)
T1 sequence: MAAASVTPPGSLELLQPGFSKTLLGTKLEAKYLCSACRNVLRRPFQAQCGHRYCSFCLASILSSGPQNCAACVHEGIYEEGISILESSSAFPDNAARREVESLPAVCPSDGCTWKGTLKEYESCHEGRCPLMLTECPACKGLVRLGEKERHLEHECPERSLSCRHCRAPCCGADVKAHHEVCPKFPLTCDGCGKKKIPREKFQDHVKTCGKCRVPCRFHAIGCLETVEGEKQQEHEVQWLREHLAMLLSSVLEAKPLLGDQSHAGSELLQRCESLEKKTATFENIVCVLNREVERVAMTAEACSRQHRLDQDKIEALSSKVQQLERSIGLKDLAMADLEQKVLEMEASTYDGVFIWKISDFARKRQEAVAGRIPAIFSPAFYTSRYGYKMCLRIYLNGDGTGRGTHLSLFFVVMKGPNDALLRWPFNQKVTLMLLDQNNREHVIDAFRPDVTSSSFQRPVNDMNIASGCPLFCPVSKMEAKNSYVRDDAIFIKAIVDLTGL


Legend:
myc-tagged TRAF2 = molecular target: T1, myc-tagged TRAF2; assay: co-IP; HEK293 cells transfected with myc-tagged TRAF2, lysed 48 h after transfection in IP lysis buffer (50 mM HEPES, 420 mM KCl, 0.1% NP-40, 1 mM EDTA); precipitated with CD147 antibodies or c-myc antibody on magnetic beads overnight at 4°C, IgG control; immunoblot for CD147 and myc-tagged TRAF2
[1] = molecular target: CD147 (mouse (endogenous in GC-2)); assay: co-IP; GC-2 cell lysate, endogenous proteins; precipitated with anti-CD147 antibody on magnetic beads; immunoblot for CD147 and TRAF2

| binding (myc-tagged TRAF2) | binding [1] | Molecule |
| --- | --- | --- |
| binds | – | CD147 (from UniProt P35613-2) |
| – | binds | TRAF2 (protein, UniProt P39429 1-501) MAAASVTSPGSLELLQPGFSKTLLGTRLEAKYLCSACKNILRRPFQAQCGHRYCSFCLTSILSSGPQNCAACVYEGLYEEGISILESSSAFPDNAARREVESLPAVCPNDGCTWKGTLKEYESCHEGLCPFLLTECPACKGLVRLSEKEHHTEQECPKRSLSCQHCRAPCSHVDLEVHYEVCPKFPLTCDGCGKKKIPRETFQDHVRACSKCRVLCRFHTVGCSEMVETENLQDHELQRLREHLALLLSSFLEAQASPGTLNQVGPELLQRCQILEQKIATFENIVCVLNREVERVAVTAEACSRQHRLDQDKIEALSNKVQQLERSIGLKDLAMADLEQKVSELEVSTYDGVFIWKISDFTRKRQEAVAGRTPAIFSPAFYTSRYGYKMCLRVYLNGDGTGRGTHLSLFFVVMKGPNDALLQWPFNQKVTLMLLDHNNREHVIDAFRPDVTSSSFQRPVSDMNIASGCPLFCPVSKMEAKNSYVRDDAIFIKAIVDLTGL |
